Patent publication US20140249298A1
Results are given in words; binding and its absence hold for the method and conditions named. Some entries that bind do so weakly or less than the wild type.

Key:
[1] = target: T1, synthetic hENT1 peptide AC-…-amide (SEQ ID NO: 59) coupled to BSA (human); assay: ELISA
T1 sequence (peptide, N-terminal acetyl (Ac-), C-terminal amide; coupled to BSA): SKGEEPRAGKEESGVSVSC

[2] = target: T1, synthetic hENT1 peptide AC-…-amide (SEQ ID NO: 59) coupled to BSA (human); assay: peptide ELISA
[3] = target: T1, synthetic hENT1 peptide AC-…-amide (SEQ ID NO: 59) coupled to BSA (human); assay: peptide ELISA, 100-fold concentrated conditioned medium at dilutions of 1/10 to 1/640
[4] = target: T1, synthetic hENT1 peptide AC-…-amide (SEQ ID NO: 59) coupled to BSA (human); assay: peptide ELISA, BSA-peptide coated at 2 ug/ml, purified samples at 1/5000, goat anti-mouse IgG-HRP detection

Measured: binding

B1: recombinant murine IgG1 kappa anti-hENT1 antibody, variable regions derived from the 10D7G2 hybridoma, transiently expressed in CHO cells (antibody, V domains shown)
VH: QVHLQQSGAELVRPGASVTLPCKASGYTFTDYEMHWVKQTPVHGLEWIGAIDPETGAIVYNQKFKGKATLTADKSSNTAYMELRSLTSEDSAVYYCTREFTYWGQGTLVTVSA
VL: DVLMTQTPLTLSVTIGQPASVSCRSSQSLLFSNGKTYLNWLFQRPGQSPKRLIYLVSKLNSGVPDRFTGTGSGTDFSLKISRVEAEDLGVYYCVQGTHFPWTFGGGTKLEIKR
binds: [1] | [2] | [3] | [4]
